Measurements from patent EP2420510B1, “Nicotinoyl peptide derivatives and cosmetic composition comprising the same” (BIO-FD&C Co., Ltd., priority 2010, dated 2013).
Part of at least one peptide drawing is inferred or uncertain, most often the ends. Residues, ends and D or L forms follow the SMILES beside them.

Key:
[1] = system: iNOS; assay: Anti-inflammatory activity test (iNOS activity inhibition test; nitric oxide by Griess reagent after LPS); type: cell-based, murine; details: amount of nitric oxide produced relative to group treated with LPS only (=100); 100 µM pre-treatment 18 hours, then LPS 24 hours, Raw264.7 cells
[2] = system: Human fibroblasts (primary cell line, CCD-986sk); assay: Collagen generation activity test (procollagen type I C-peptide (PIP) ELISA); type: cell-based; details: 100 µM, 24 hours, CCD-986sk fibroblasts, PIP ELISA absorbance at 450 nm relative to purified water control (=100)

Row | SMILES | Yields (%) [1] | Collagen Generation Activity (%) [2]
1 | CSCC[C@H](NC(=O)[C@H](Cc1ccccc1)NC(=O)CNC(=O)CNC(=O)[C@H](Cc1ccc(O)cc1)NC(=O)c1cccnc1)C(=O)O [Example 1, nicotinoyl-pentapeptide (tyrosyl-glycyl-glycyl-phenylalanyl-methionine (SEQ ID No:1))] | 78.5% | 123.3%
2 | CC(C)C[C@H](NC(=O)[C@H](Cc1ccccc1)NC(=O)CNC(=O)CNC(=O)[C@H](Cc1ccc(O)cc1)NC(=O)c1cccnc1)C(=O)N[C@@H](CCCNC(=N)N)C(=O)N[C@@H](CCCCN)C(=O)N[C@@H](Cc1ccc(O)cc1)C(=O)N1CCC[C@H]1C(=O)O [Example 3, nicotinoyl-nonapeptide (tyrosyl-glycyl-glycyl-phenylalanyl-leucyl-arginyl-lysyl-tyrosyl-proline (SEQ ID No:3))] (HELM PEPTIDE1{[O=C(c1cccnc1)[*:2]].Y.G.G.F.L.R.K.Y.P}$$$$V2.0) | 75.1% | 122.8%
3 | CC(C)C[C@H](NC(=O)[C@H](Cc1ccccc1)NC(=O)CNC(=O)CNC(=O)[C@H](Cc1ccc(O)cc1)NC(=O)c1cccnc1)C(=O)N[C@@H](CCCNC(=N)N)C(=O)N[C@@H](CCCCN)C(=O)N[C@@H](Cc1ccc(O)cc1)C(=O)N1CCC[C@H]1C(=O)N[C@@H](CCCCN)C(=O)O [Example 4, nicotinoyl-decapeptide (tyrosyl-glycyl-glycyl-phenylalanyl-leucyl-arginyl-lysyl-tyrosyl-prolyl-lycine (SEQ ID No:4))] (HELM PEPTIDE1{[O=C(c1cccnc1)[*:2]].Y.G.G.F.L.R.K.Y.P.K}$$$$V2.0) | 77.8% | 123.0%
